PubChem BioAssay AID652243 | Drosophila RNAi Screening Center, 2013
The screen tested about 24,000 reagents; below is a random part of those that have a named target and a result. In the full data, 246 (1%) were called active. 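Plates not normalised; calls are printed but the firefly/Renilla ratio behind them is not deposited; fold cut for lowering reported inconsistently.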 Raw values vary from plate to plate and are shown uncorrected. A plus sign joins genes that one reagent is predicted to hit. Not given: the amount of reagent.

Aim: 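Knock-downs that decrease or increase androgen receptor reporter signal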 (primary screen)
System: Drosophila S2R+ cells
Knock-down reagent: long dsRNA against Drosophila genes
Timing: 72 h (48 h, then 24 h hormone)
Challenge: synthetic androgen R1881 at 10 nM for 24 h
Measured: 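Firefly light from an androgen-responsive reporter and Renilla control light per well, raw and unnormalised, for each of two replicates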
Reading the numbers: firefly reporter light: higher = more light from androgen-responsive reporter; Renilla control light: higher = more constitutive control signal (cell number, transfection)
Rule for the call: 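Hit when the log firefly-to-Renilla ratio dropped or increased by a fixed fold versus the mean of GFP or LacZ controls across duplicate plates; lowering cut given as 1.5 and as 3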
Meaning of the calls: active = hit: reporter lowered or raised; inactive = no hit

The opening 3 records as a preview:
gene knocked down | DRSC id | firefly reporter light, replicate 1 | firefly reporter light, replicate 2 | Renilla control light, replicate 1 | Renilla control light, replicate 2 | call
Dsor1 (Downstream of raf1) | DRSC18462 | 1.05e5 | 97052 | 7.82e5 | 7.66e5 | inactive
Dsor1 (Downstream of raf1) | DRSC27547 | 1.86e5 | 2.38e5 | 6.23e5 | 8.64e5 | inactive
tws (twins) | DRSC12767 | 1.07e5 | 1.08e5 | 1.57e5 | 1.53e5 | inactive

Main list, from the start:
gene knocked down | DRSC id | firefly reporter light, replicate 1 | firefly reporter light, replicate 2 | Renilla control light, replicate 1 | Renilla control light, replicate 2 | call
Dsor1 (Downstream of raf1) | DRSC18462 | 1.05e5 | 97052 | 7.82e5 | 7.66e5 | inactive
Dsor1 (Downstream of raf1) | DRSC27547 | 1.86e5 | 2.38e5 | 6.23e5 | 8.64e5 | inactive
tws (twins) | DRSC12767 | 1.07e5 | 1.08e5 | 1.57e5 | 1.53e5 | inactive
tws (twins) | DRSC17092 | 84506 | 1.54e5 | 2.59e5 | 3.61e5 | inactive
tws (twins) | DRSC27776 | 4.39e5 | 2.72e5 | 5.48e5 | 7.27e5 | inactive
tws (twins) | DRSC37011 | – | – | – | – | inactive
CG31793 | DRSC02605 | 1.11e5 | 78792 | 9.45e5 | 1.08e6 | inactive
CG31793 | DRSC24308 | 5.94e5 | 5.45e5 | 6.14e5 | 7.21e5 | inactive
Rbcn-3B (Rabconnectin-3B) | DRSC18574 | 3.82e5 | 2.74e5 | 4.09e6 | 4.02e6 | inactive
CG33298 | DRSC02210 | 82600 | 96471 | 1.16e6 | 9.21e5 | inactive
CG33298 | DRSC02672 | 1.17e6 | 8.59e5 | 2.37e6 | 1.84e6 | inactive
msl-2 (male-specific lethal 2) | DRSC00829 | 7.11e5 | 9.65e5 | 3.78e6 | 2.50e6 | inactive
msl-2 (male-specific lethal 2) | DRSC28208 | 6.05e5 | 5.05e5 | 1.12e6 | 9.24e5 | inactive
Herp (Homocysteine-induced endoplasmic reticulum protein) | DRSC02394 | 1.17e6 | 1.21e6 | 1.89e6 | 1.63e6 | inactive
Herp (Homocysteine-induced endoplasmic reticulum protein) | DRSC26891 | 4.83e5 | 4.52e5 | 8.04e5 | 4.68e5 | inactive
Or88a (Odorant receptor 88a) | DRSC16770 | 83756 | 1.52e5 | 1.51e6 | 2.17e6 | inactive
Rga + asRNA:ASTR | DRSC12364 | 1.24e5 | 66103 | 2.98e6 | 1.66e6 | inactive
lin (lines) | DRSC07644 | 3.92e5 | 3.60e5 | 2.42e6 | 1.93e6 | inactive
lin (lines) | DRSC28074 | 2.79e5 | 2.80e5 | 6.88e5 | 7.75e5 | inactive
CG17929 | DRSC15291 | 2.20e5 | 1.93e5 | 2.14e6 | 2.33e6 | inactive
CG13675 | DRSC23124 | 2.26e5 | 3.72e5 | 1.54e6 | 1.91e6 | inactive
CG11275 | DRSC04095 | 3.20e5 | 4.38e5 | 2.26e6 | 1.94e6 | inactive
CARPB (Carbonic anhydrase-related protein B) | DRSC18437 | 7.40e5 | 8.54e5 | 1.63e6 | 1.95e6 | inactive
CARPB (Carbonic anhydrase-related protein B) | DRSC18438 | 3.37e5 | 3.85e5 | 3.00e6 | 2.84e6 | inactive
